According to PubChem BioAssay AID2685 (National Center for Advancing Translational Sciences (NCATS), 2010):
The list shows a part of the results. Further columns of the screen follow, without active or inactive calls. The list favours compounds with an active or inconclusive main result. Words in brackets tell the shape of the fitted curve; partial curves, single points and poor fits give uncertain potencies.

Assay: qHTS Assay for Lipid Storage Modulators in Drosophila S3 Cells;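 as to cell number change: cells counted by Cell Tracker Red CMTPX staining in the red channel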
Conditions: BODIPY lipid droplet fluorescence, 18-24 h; for cell number change: measured here: cell count max response, cells fed with added oleic acid
How it was run: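 Drosophila S3 cells loaded with oleic acid (400 uM, as added) and compounds at several concentrations; lipid droplets imaged by 488-nm laser-scanning cytometry, 500–530 nm intensity and object ratio to cell channel. Percent activity normalized to 20 uM Triacsin C.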

[1] = measured here: lipid fluorescence (Fed channel) AC50, cells fed with added oleic acid
[2] = measured here: cell number channel AC50, cells fed with added oleic acid

Structure (SMILES)	cell number change	AC50 [1]	AC50 [2]
S=C1NC[C@H](CC2CCCCC2)N1CCc1cccc2ccccc12	19.1%	326 nM [rising, partial curve, poor fit]	–
Cc1ccc(S(=O)(=O)Nc2ccc3cn[nH]c3c2)c(C)c1	-4.92%	6510 nM [rising, single point]	4610 nM [rising, partial curve, poor fit]
CCOc1cc(/C=N/NC(=O)c2ccncc2)cc(Cl)c1OS(C)(=O)=O	2.69%	–	–
O=C(c1cccs1)N1CCC(c2nc3c(nnn3Cc3c(Cl)cccc3Cl)c(=O)[nH]2)CC1	5.13%	580 nM [falling, partial curve]	–
COc1ccc(C)cc1NC(=S)N1CC(C)OC(C)C1 (stereo not drawn)	4.86%	–	–
COc1ccc(CNC(=O)C2CCN(S(=O)(=O)c3ccc4c(c3)C(C)(C)C(=O)N4C)CC2)cc1	-1.2%	–	–
O=C(Cn1c(NCCO)nc2ccccc21)Nc1ccc2c(c1)OCCCO2	21%	–	–
Cc1cc(C)nc(N/N=C/c2ccccc2OCc2ccc(Cl)cc2)n1	–	146 nM [rising, full curve, poor fit]	–
O=C(COc1ccccc1)NCC(=O)Nc1ccncc1	112%	29100 nM [rising, single point]	–
Cc1ccccc1CC(=O)NCCN1CCOCC1	1.66%	580 nM [rising, single point]	–
CCOc1ccc(N(CC(=O)NCc2ccccc2)S(C)(=O)=O)cc1	2.74%	164 nM [falling, partial curve]	731 nM [falling, full curve]
CC1Cc2ccccc2N1C(=O)COc1ccc2c(c1)OCO2 (stereo not drawn)	45.8%	4.61 nM [rising, full curve, poor fit]	4.61 nM [rising, full curve, poor fit]
CC(NC(=O)CCNS(=O)(=O)c1cccc2nonc12)c1ccccc1 (stereo not drawn)	17.9%	1030 nM [rising, full curve]	–
O=C(c1ccco1)N1CCN(C(=O)c2ccccc2[N+](=O)[O-])CC1	-46.5%	–	116 nM [falling, full curve]
CC1CCCC(C)N1C(=O)COC(=O)Cn1cnc2c1c(=O)n(C)c(=O)n2C (stereo not drawn)	8.08%	–	–
Cc1ccc(S(=O)(=O)N2CCN(S(=O)(=O)c3c(C)n[nH]c3C)CC2)cc1C	-28.1%	–	–
O=C(CS(=O)(=O)c1ccccc1)Nc1nc2ccccc2s1	-3.69%	1460 nM [rising, full curve, poor fit]	–
Cn1c(Cn2cnc3ccccc32)nnc1SCc1ccccc1	-49.5%	29100 nM [rising, single point]	29100 nM [falling, single point]

Two consecutive records already listed, for reference:
Structure (SMILES)	cell number change	AC50 [1]	AC50 [2]
Cc1ccc(S(=O)(=O)Nc2ccc3cn[nH]c3c2)c(C)c1	-4.92%	6510 nM [rising, single point]	4610 nM [rising, partial curve, poor fit]
CCOc1cc(/C=N/NC(=O)c2ccncc2)cc(Cl)c1OS(C)(=O)=O	2.69%	–	–
